# Laboratory results published in the supplement of paper PMC8728848.
# The list shows a part of the results.
# Key:
# Test in all cases: glycan array binding signal (z-score within array); higher = stronger binding
# Settings in all cases: glycan notation: IUPAC condensed, linker removed
# [1] = biological target: GlcNAc(b1-3)Gal(b1-4)GlcNAc(b1-3)Gal(b1-4)GlcNAc(b1-3)GalNAc
# Procedure, shortened: (§1)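 Negative Z-scores can be read as non-binding. The Z-score is calculated within each array and then averaged across arrays of one protein sequence at different concentrations or buffers and across linkers. Arrays, 3228 in all, were curated from the Consortium for Functional Glycomics database and kept only where the protein sequence was available.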
# [2] = biological target: GlcNAc(b1-3)Gal(b1-4)GlcNAc(b1-3)GalNAc
# Procedure, shortened: as §1
# [3] = biological target: GlcNAc(b1-3)Gal(b1-4)GlcNAc(b1-3)[GlcNAc(b1-3)Gal(b1-4)GlcNAc(b1-3)]GalNAc
# Procedure, shortened: as §1
# [4] = biological target: GlcNAc(b1-3)Gal(b1-4)GlcNAc(b1-6)[Gal(b1-3)]GalNAc
# Procedure, shortened: as §1
# [5] = biological target: GlcNAc(b1-3)Gal(b1-4)GlcNAc(b1-6)[GlcNAc(b1-3)Gal(b1-3)]GalNAc
# Procedure, shortened: as §1
# [6] = biological target: GlcNAc(b1-3)Gal(b1-4)GlcNAc(b1-6)[GlcNAc(b1-3)]Gal(b1-4)GlcNAc
# Procedure, shortened: as §1
# [7] = biological target: GlcNAc(b1-3)GalNAc
# Procedure, shortened: as §1
# [8] = biological target: GlcNAc(b1-3)Man
# Procedure, shortened: as §1
# [9] = biological target: GlcNAc(b1-3)[GlcNAc(b1-4)][GlcNAc(b1-6)]GlcNAc
# Procedure, shortened: as §1
# [10] = biological target: GlcNAc(b1-3)[GlcNAc(b1-6)]Gal(b1-4)GlcNAc
# Procedure, shortened: as §1
# [11] = biological target: GlcNAc(b1-3)[GlcNAc(b1-6)]GalNAc
# Procedure, shortened: as §1
# [12] = biological target: GlcNAc(b1-4)Gal(b1-4)GlcNAc
# Procedure, shortened: as §1
# [13] = biological target: GlcNAc(b1-4)GlcNAc
# Procedure, shortened: as §1
# [14] = biological target: GlcNAc(b1-4)GlcNAc(b1-4)GlcNAc
# Procedure, shortened: as §1
# [15] = biological target: GlcNAc(b1-4)GlcNAc(b1-4)GlcNAc(b1-4)GlcNAc(b1-4)GlcNAc
# Procedure, shortened: as §1
# [16] = biological target: GlcNAc(b1-4)GlcNAc(b1-4)GlcNAc(b1-4)GlcNAc(b1-4)GlcNAc(b1-4)GlcNAc
# Procedure, shortened: as §1
# [17] = biological target: GlcNAc(b1-4)[GlcNAc(b1-6)]GalNAc
# Procedure, shortened: as §1
# [18] = biological target: GlcNAc(b1-6)Gal(b1-4)GlcNAc
# Procedure, shortened: as §1
# [19] = biological target: GlcNAc(b1-6)GalNAc
# Procedure, shortened: as §1
# [20] = biological target: GlcNAc6S(b1-3)Gal(b1-4)GlcNAc
# Procedure, shortened: as §1
# [21] = biological target: Kdn(a2-3)Gal(b1-3)GalNAc
# Procedure, shortened: as §1
# [22] = biological target: Kdn(a2-3)Gal(b1-3)GlcNAc
# Procedure, shortened: as §1
# [23] = biological target: Kdn(a2-3)Gal(b1-4)Glc
# Procedure, shortened: as §1
# [24] = biological target: Kdn(a2-3)Gal(b1-4)GlcNAc
# Procedure, shortened: as §1
# [25] = biological target: Kdn(a2-3)Gal(b1-4)[Fuc(a1-3)]GlcNAc
# Procedure, shortened: as §1
# [26] = biological target: Kdn(a2-6)Gal(b1-4)GlcNAc
# Procedure, shortened: as §1
# [27] = biological target: Man(a1-2)Man(a1-2)Man(a1-3)Man
# Procedure, shortened: as §1
# [28] = biological target: Man(a1-2)Man(a1-2)Man(a1-6)[Man(a1-3)]Man
# Procedure, shortened: as §1
# [29] = biological target: Man(a1-2)Man(a1-3)Man
# Procedure, shortened: as §1
# [30] = biological target: Man(a1-2)Man(a1-3)[Man(a1-2)Man(a1-6)]Man
# Procedure, shortened: as §1
# [31] = biological target: Man(a1-2)Man(a1-3)[Man(a1-2)Man(a1-6)]Man(a1-6)[Man(a1-2)Man(a1-2)Man(a1-3)]Man
# Procedure, shortened: as §1
# [32] = biological target: Man(a1-2)Man(a1-3)[Man(a1-2)Man(a1-6)]Man(a1-6)[Man(a1-2)Man(a1-2)Man(a1-3)]Man(b1-4)GlcNAc(b1-4)GlcNAc
# Procedure, shortened: as §1
# [33] = biological target: Man(a1-2)Man(a1-3)[Man(a1-6)]Man(a1-6)[Man(a1-2)Man(a1-3)]Man(b1-4)GlcNAc(b1-4)GlcNAc
# Procedure, shortened: as §1
# [34] = biological target: Man(a1-2)Man(a1-6)[Man(a1-3)]Man(a1-6)[Man(a1-2)Man(a1-2)Man(a1-3)]Man
# Procedure, shortened: as §1
# [35] = biological target: Man(a1-2)Man(a1-6)[Man(a1-3)]Man(a1-6)[Man(a1-2)Man(a1-2)Man(a1-3)]Man(b1-4)GlcNAc(b1-4)GlcNAc
# Procedure, shortened: as §1
# [36] = biological target: Man(a1-3)[Man(a1-6)]Man
# Procedure, shortened: as §1
# [37] = biological target: Man(a1-3)[Man(a1-6)]Man(a1-6)[Man(a1-2)Man(a1-3)]Man(b1-4)GlcNAc(b1-4)GlcNAc
# Procedure, shortened: as §1
binder,measurement,setting,value
Sp8391B-bot-388-20-388 (Bacteroides ovatus) (protein) GCQNNDENEQHYDNKLFISASNFTKEILFKAGDTNVETGLSVAIAKPEEHDIKVTMSPAPELLSTYKLAYYDETAVLLSEEHYSMPETSTTIKSGSIVSPELPIEFINTGELDIKTTYVLPVTIKSVEGIGVLQSAKTYYYVFRGASLINVVCNISRNRAYPDFKNDSKFNNLTENTMEILFKANSFPNTLNTLMGIESNYLLRIGDATIPNNQLQVATSVNNCTSADLQLESGKWYHVAVAFNKGNVKVYINGVEKLSGSTGKSSVSLGAKHTNEEDGSRCFWVGYSYKDDRYFDGVVSEVRIWNRALTAEEIQATNHFYTIEPESEGLIAYWKFDEGSGTVAKDYSVSGYDLTIEKEPKWESVSLPQ,glycan array binding signal (z-score),[1],-0.298
same,glycan array binding signal (z-score),[2],0.039
same,glycan array binding signal (z-score),[3],-0.103
same,glycan array binding signal (z-score),[4],-0.391
same,glycan array binding signal (z-score),[5],1.69
same,glycan array binding signal (z-score),[6],0.152
same,glycan array binding signal (z-score),[7],-0.328
same,glycan array binding signal (z-score),[8],0.083
same,glycan array binding signal (z-score),[9],-0.908
same,glycan array binding signal (z-score),[10],-1.1
same,glycan array binding signal (z-score),[11],-0.04
same,glycan array binding signal (z-score),[12],-0.752
same,glycan array binding signal (z-score),[13],0.278
same,glycan array binding signal (z-score),[14],-0.077
same,glycan array binding signal (z-score),[15],-0.574
same,glycan array binding signal (z-score),[16],-0.594
same,glycan array binding signal (z-score),[17],-0.549
same,glycan array binding signal (z-score),[18],0.387
same,glycan array binding signal (z-score),[19],0.361
same,glycan array binding signal (z-score),[20],-0.463
same,glycan array binding signal (z-score),[21],0.008
same,glycan array binding signal (z-score),[22],-0.992
same,glycan array binding signal (z-score),[23],-0.215
same,glycan array binding signal (z-score),[24],0.306
same,glycan array binding signal (z-score),[25],1.91
same,glycan array binding signal (z-score),[26],0.757
same,glycan array binding signal (z-score),[27],0.58
same,glycan array binding signal (z-score),[28],0.712
same,glycan array binding signal (z-score),[29],0.177
same,glycan array binding signal (z-score),[30],-0.309
same,glycan array binding signal (z-score),[31],-1.15
same,glycan array binding signal (z-score),[32],0.272
same,glycan array binding signal (z-score),[33],-0.67
same,glycan array binding signal (z-score),[34],-0.348
same,glycan array binding signal (z-score),[35],0.616
same,glycan array binding signal (z-score),[36],-1.24
same,glycan array binding signal (z-score),[37],-0.452

# Part of the list above, with tabs:
binder	measurement	setting	value
Sp8391B-bot-388-20-388 (Bacteroides ovatus) (protein) GCQNNDENEQHYDNKLFISASNFTKEILFKAGDTNVETGLSVAIAKPEEHDIKVTMSPAPELLSTYKLAYYDETAVLLSEEHYSMPETSTTIKSGSIVSPELPIEFINTGELDIKTTYVLPVTIKSVEGIGVLQSAKTYYYVFRGASLINVVCNISRNRAYPDFKNDSKFNNLTENTMEILFKANSFPNTLNTLMGIESNYLLRIGDATIPNNQLQVATSVNNCTSADLQLESGKWYHVAVAFNKGNVKVYINGVEKLSGSTGKSSVSLGAKHTNEEDGSRCFWVGYSYKDDRYFDGVVSEVRIWNRALTAEEIQATNHFYTIEPESEGLIAYWKFDEGSGTVAKDYSVSGYDLTIEKEPKWESVSLPQ	glycan array binding signal (z-score)	[3]	-0.103
same	glycan array binding signal (z-score)	[4]	-0.391
same	glycan array binding signal (z-score)	[15]	-0.574
same	glycan array binding signal (z-score)	[19]	0.361
same	glycan array binding signal (z-score)	[25]	1.91
same	glycan array binding signal (z-score)	[28]	0.712
same	glycan array binding signal (z-score)	[29]	0.177
same	glycan array binding signal (z-score)	[30]	-0.309
